Substitutions are numbered along the chain they refer to. These are yes or no findings as the source states them, for the method shown. Binding seen in cells or lysates may run through a third protein. Here binding means that the protein was enriched with, or labelled near, the bait; the list need not be complete. For some assays here: No binding means not detected with the bait.
Legend:
TAP–Bag-1L (human) [1] = molecular target: T1, TAP–Bag-1L (human) (UniProt Q99933); assay: affinity purification with mass spectrometry; TAP-tagged Bag-1 isoform or Bag-1S mutant in lysate of transfected MCF-7 cells, captured on IgG Sepharose overnight at 4°C, released with AcTEV protease; in-solution trypsin digest, LC-MS/MS, label-free; enrichment >1.2-fold relative to TAP-only mock (mutants relative to wild-type TAP–Bag-1S)
T1 sequence: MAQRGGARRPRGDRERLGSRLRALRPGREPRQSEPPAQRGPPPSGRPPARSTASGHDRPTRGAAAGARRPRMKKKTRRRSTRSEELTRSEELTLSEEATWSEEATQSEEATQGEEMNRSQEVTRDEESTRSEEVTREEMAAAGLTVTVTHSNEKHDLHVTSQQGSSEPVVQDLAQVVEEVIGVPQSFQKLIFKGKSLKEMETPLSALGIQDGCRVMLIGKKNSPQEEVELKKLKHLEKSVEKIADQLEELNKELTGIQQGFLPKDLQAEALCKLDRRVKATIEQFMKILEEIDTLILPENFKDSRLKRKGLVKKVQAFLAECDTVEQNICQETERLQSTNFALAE

Protein sequences, listed by entry. Tags and fused reporters are not part of them. Residues count along the entry.
UniProt P27824, residues 21-592: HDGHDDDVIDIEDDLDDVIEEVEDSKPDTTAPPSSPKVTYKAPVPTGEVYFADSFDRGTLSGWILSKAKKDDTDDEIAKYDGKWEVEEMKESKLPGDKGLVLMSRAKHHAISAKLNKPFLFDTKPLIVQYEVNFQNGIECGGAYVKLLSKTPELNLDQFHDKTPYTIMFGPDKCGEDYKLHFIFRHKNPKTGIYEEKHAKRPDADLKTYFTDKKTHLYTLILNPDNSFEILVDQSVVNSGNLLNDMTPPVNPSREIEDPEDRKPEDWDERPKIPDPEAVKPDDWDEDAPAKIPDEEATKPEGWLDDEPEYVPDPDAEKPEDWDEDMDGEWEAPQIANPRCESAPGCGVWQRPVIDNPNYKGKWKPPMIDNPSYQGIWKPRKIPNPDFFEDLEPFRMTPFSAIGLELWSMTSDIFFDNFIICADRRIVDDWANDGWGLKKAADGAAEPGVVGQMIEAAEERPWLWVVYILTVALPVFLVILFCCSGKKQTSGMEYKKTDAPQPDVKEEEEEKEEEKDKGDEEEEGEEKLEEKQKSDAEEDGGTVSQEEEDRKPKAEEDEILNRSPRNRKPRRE
UniProt P54727: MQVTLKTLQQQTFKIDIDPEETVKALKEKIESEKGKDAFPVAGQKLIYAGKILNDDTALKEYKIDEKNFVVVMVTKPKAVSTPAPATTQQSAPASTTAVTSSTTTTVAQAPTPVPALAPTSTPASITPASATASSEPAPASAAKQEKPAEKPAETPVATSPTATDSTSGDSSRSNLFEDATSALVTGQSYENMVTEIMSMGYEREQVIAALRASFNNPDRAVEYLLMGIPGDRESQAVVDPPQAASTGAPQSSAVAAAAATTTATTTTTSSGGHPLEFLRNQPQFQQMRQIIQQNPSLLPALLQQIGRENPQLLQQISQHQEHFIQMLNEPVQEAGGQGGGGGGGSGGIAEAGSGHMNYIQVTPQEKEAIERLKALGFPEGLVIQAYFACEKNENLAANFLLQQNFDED
UniProt P10415: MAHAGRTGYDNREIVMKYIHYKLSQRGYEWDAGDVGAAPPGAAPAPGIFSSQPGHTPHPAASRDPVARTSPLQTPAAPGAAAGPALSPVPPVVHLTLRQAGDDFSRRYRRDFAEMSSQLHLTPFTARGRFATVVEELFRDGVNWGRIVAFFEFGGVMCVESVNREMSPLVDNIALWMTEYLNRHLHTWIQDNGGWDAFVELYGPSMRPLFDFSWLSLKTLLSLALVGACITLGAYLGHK
UniProt Q9UMX0: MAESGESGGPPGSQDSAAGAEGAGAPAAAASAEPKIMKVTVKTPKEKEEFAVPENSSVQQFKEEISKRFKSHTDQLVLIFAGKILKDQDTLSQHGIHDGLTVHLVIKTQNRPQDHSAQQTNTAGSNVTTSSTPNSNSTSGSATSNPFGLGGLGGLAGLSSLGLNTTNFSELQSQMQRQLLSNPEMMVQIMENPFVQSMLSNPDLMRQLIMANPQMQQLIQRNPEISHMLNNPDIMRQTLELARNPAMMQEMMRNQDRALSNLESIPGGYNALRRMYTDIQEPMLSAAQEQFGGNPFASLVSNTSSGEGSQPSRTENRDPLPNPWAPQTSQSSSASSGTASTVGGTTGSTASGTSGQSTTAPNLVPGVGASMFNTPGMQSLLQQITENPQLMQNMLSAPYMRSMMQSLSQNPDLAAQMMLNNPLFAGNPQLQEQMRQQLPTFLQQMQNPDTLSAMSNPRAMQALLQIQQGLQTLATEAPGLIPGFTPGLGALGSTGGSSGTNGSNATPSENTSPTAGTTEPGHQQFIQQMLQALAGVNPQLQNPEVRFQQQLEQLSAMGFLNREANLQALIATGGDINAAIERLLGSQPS
UniProt P0DMV8: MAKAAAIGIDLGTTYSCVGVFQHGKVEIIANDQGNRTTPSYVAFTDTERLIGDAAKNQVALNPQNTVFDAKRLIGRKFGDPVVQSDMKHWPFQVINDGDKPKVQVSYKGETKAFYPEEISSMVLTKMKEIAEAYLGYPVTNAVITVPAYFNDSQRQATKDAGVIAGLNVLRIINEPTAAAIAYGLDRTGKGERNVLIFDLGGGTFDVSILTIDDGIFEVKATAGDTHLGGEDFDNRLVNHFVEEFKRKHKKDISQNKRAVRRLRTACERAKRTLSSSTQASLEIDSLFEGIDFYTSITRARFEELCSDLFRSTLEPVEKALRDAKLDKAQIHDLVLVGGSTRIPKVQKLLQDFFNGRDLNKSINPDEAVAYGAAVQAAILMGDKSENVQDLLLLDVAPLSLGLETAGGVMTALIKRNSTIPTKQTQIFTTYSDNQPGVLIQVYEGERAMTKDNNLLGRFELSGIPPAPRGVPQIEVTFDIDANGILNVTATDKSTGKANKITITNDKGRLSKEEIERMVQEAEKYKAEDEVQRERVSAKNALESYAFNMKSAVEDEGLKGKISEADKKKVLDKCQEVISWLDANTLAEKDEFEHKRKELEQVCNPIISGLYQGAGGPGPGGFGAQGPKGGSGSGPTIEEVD
UniProt P11142: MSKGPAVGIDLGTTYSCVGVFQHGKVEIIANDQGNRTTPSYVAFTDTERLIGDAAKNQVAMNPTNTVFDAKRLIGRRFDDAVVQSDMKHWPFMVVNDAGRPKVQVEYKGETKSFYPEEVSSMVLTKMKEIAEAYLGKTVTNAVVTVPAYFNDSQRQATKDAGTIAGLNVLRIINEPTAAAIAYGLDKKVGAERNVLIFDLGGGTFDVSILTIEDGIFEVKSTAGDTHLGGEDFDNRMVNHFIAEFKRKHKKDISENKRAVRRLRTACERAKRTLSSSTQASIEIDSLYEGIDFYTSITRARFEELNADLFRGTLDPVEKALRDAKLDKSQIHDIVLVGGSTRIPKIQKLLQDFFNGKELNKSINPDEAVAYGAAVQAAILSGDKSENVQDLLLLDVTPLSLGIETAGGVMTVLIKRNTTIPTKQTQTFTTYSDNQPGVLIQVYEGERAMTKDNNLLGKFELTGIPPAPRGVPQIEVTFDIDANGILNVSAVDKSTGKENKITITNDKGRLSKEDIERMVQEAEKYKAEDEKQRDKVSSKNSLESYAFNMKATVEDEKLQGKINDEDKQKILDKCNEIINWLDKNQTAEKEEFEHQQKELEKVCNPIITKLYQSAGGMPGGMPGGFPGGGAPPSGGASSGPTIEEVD
UniProt Q9UNE7: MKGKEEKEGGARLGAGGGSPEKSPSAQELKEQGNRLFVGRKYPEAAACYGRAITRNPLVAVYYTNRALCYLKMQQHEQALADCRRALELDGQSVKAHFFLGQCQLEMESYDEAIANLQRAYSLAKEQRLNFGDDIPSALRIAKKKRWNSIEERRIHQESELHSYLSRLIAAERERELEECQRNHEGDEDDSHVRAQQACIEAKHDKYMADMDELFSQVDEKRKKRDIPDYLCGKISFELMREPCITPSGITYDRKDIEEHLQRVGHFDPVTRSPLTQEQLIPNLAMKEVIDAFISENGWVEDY

TAP–Bag-1S (human) [2] = molecular target: T2, TAP–Bag-1S (human) (UniProt Q99933); assay: as above
T2 sequence: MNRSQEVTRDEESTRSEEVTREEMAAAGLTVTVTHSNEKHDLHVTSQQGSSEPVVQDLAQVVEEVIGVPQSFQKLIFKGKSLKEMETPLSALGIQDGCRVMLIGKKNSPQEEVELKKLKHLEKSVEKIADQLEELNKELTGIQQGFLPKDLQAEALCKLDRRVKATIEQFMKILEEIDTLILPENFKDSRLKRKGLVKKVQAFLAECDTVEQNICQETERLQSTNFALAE

TAP–Bag-1L (human) [3] = molecular target: T1, TAP–Bag-1L (human); assay: affinity purification with mass spectrometry + native gel or EMSA; TAP–Bag-1 isoform complexes from transfected cells (extraction with 5% digitonin) affinity-purified, run on BN-PAGE; bands cut, in-gel trypsin digest, LC-MS/MS
TAP–Bag-1S (human) [4] = molecular target: T2, TAP–Bag-1S (human); assay: as above
TAP–Bag-1S R161D (human) = molecular target: T3, TAP–Bag-1S R161D (human) (UniProt Q99933); assay: affinity purification with mass spectrometry; TAP-tagged Bag-1 isoform or Bag-1S mutant in lysate of transfected MCF-7 cells, captured on IgG Sepharose overnight at 4°C, released with AcTEV protease; in-solution trypsin digest, LC-MS/MS, label-free; enrichment >1.2-fold relative to TAP-only mock (mutants relative to wild-type TAP–Bag-1S)
T3 sequence: T2 sequence with R161D

TAP–Bag-1S R193D (human) = molecular target: T4, TAP–Bag-1S R193D (human) (UniProt Q99933); assay: as above
T4 sequence: T2 sequence with R193D

TAP–Bag-1S R162E (human) = molecular target: T5, TAP–Bag-1S R162E (human) (UniProt Q99933); assay: as above
T5 sequence: T2 sequence with R162E

Row | binding (TAP–Bag-1L (human) [1]) | binding (TAP–Bag-1S (human) [2]) | binding (TAP–Bag-1L (human) [3]) | binding (TAP–Bag-1S (human) [4]) | Substance | other results
1 | no binding | no binding |  |  | Akt (human (endogenous in MCF-7)) | 
2 |  |  | binds | binds | Calnexin (from UniProt P27824 21-592) | 
3 |  |  | binds | binds | Calreticulin (from UniProt P27797 18-417) | 
4 |  |  | binds | binds | Rad23B (from UniProt P54727 1-409) | 
5 |  |  | binds | binds | ribophorin | 
6 |  | binds | binds | binds | VCP/p97 (from UniProt P55072 1-806) | binding (TAP–Bag-1S R161D (human)): binds; binding (TAP–Bag-1S R193D (human)): binds; binding (TAP–Bag-1S R162E (human)): binds
7 | no binding | no binding |  |  | Bcl-2 (from UniProt P10415 1-239) | 
8 |  |  | binds | binds | ubiquilin-1 (from UniProt Q9UMX0 1-589) | 
9 | binds | binds |  |  | Hsp70 (from UniProt P0DMV8 1-641) | binding (TAP–Bag-1S R193D (human)): binds
10 | binds | binds |  |  | Hsc70 (from UniProt P11142 1-646) | 
11 | no binding |  |  |  | CHIP (from UniProt Q9UNE7 1-303) | 
